Data taken from PubChem BioAssay AID445 (National Center for Advancing Translational Sciences (NCATS), 2006).
This is one part of the list. Further columns of the screen follow, without active or inactive calls. Compounds called inactive in the main read-out are mostly missing here. The note in brackets gives the kind of curve behind each potency; many fits are weak.

Assay: IkB Signaling
Conditions: ABC-DLBCL IkBa-CBG/CBR dual luciferase ratio (green luciferase fused to IkBa over red control in OCI-Ly3 lymphoma cells), 4 h; measured here: control luc red channel unless noted
Procedure, shortened: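 Curves were fitted separately to fusion (green), unfused (red) and ratio luminescence, then classed by r2, magnitude and activity. Cells: OCI-Ly3, 4 h compound plus doxycycline at 37C; 10 uM MG-132 defined full response.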
For `CCCn1c(COc2cccc(C)c2)nc2ccccc21`, the AC50 was 25.1 µM [falling, single point]. With `Cc1ccccc1-c1nnc(SCC(=O)N(C)c2ccccc2)o1` the AC50 was 15.8 µM [falling, partial curve]. With `Cc1ccc(S(=O)(=O)NCc2ccc(C(=O)N3CCN(c4ccccn4)CC3)cc2)cc1` the AC50 was 12.6 µM [falling, partial curve]. With `CCCCNc1nc2c(-c3cccc(C)c3)nnn2c2ccccc12` the AC50 was 25.1 µM [falling, single point]. In the case of `CCn1c(SCC(=O)NCc2ccco2)nnc1C(C)C`, the AC50 is reported as 25.1 µM [rising, single point] [measured here: IkB-luc green channel]. In the case of `Cc1cccc(OCC(=O)Nc2cccc(C(=O)OCc3cc(=O)n4nc(C(C)C)sc4n3)c2)c1`, the AC50 is reported as 5.01 µM [falling, partial curve]. In the case of `N/N=C1/CC(=O)NC(=O)N1`, the AC50 is reported as 2.51 µM [falling, partial curve]. For `Cc1ccccc1CCNC(=O)c1ccc(NC(=O)N2CC(C)Sc3ccccc32)cc1` (stereo not given), the AC50 was 15.8 µM [falling, partial curve]. With `COc1ccccc1OCCn1c(C(C)O)nc2ccccc21` (stereo not given) the AC50 was 25.1 µM [rising, single point] [measured here: IkB-luc green channel]. In the case of `O=C(Cc1c(O)c2ccccc2[nH]c1=O)NC1CCCCCC1`, the AC50 is reported as 1.26 µM [falling, full curve]. With `[N-]=[N+]=CC(=O)CC(c1ccccc1)N1C(=O)c2ccccc2C1=O` (stereo not given) the AC50 was 0.398 µM [falling, partial curve]. For `Cc1ccc(C)c(Nc2nnc(-c3ccc(C)c(S(=O)(=O)N4CCN(C)CC4)c3)c3ccccc23)c1`, the AC50 was 39.8 µM [falling, single point]. With `CCOc1ccc(NC(=O)CSc2oc(-c3cccs3)nc2S(=O)(=O)c2ccc(C)cc2)cc1` the AC50 was 2 µM [falling, full curve, poor fit]. In the case of `CCn1nc(C)c2c(-c3ccccc3)cc(=O)n(C(C)C(=O)Nc3cccc(F)c3)c21` (stereo not given), the AC50 is reported as 12.6 µM [falling, partial curve, poor fit]. With `Nc1nc2ccc(C(=O)Nc3ccccc3)cc2s1` the AC50 was 15.8 µM [falling, partial curve]. For `Cc1ccc(C2=CC(c3ccccc3C)n3c(nc4ccccc43)N2)cc1` (stereo not given), the AC50 was 3.98 µM [falling, partial curve]. With `COc1ccccc1NC(=O)Cn1cnc2c(cnn2-c2ccccc2)c1=O` the AC50 was 39.8 µM [falling, single point]. With `Cc1ccc2nc(/C(C#N)=N/O)[nH]c2c1` the AC50 was 39.8 µM [falling, single point]. With `CCc1ccc(NC(=O)CN2CCN(C3CCCCC3)C(=O)C2=O)cc1` the AC50 was 25.1 µM [falling, partial curve, poor fit]. In the case of `Cc1ccc(/C=C(\C#N)C(=O)Nc2ccc(Br)cc2)o1`, the AC50 is reported as 12.6 µM [falling, partial curve]. With `Cn1c(CCNC(=O)c2ccco2)nc2cc(NS(=O)(=O)c3ccccc3)ccc21` the AC50 was 10 µM [falling, partial curve]. With `CN(C)CCNC(=O)CN1N=C(c2ccccc2)CCC1=O` the AC50 was 0.0398 µM [falling, full curve, poor fit]. In the case of `COc1cc(C2C(=O)N(C3CCCCCC3)CC(=O)N2Cc2ccccc2)ccc1OC(C)C` (stereo not given), the AC50 is reported as 10 µM [falling, partial curve]. For `CC(C)CCNC(=O)NC(=O)CSc1nnc(-c2ccccc2Br)o1`, the AC50 was 31.6 µM [falling, partial curve]. With `Cc1sc2ncnc(N3CCN(c4ncccn4)CC3)c2c1C` the AC50 was 25.1 µM [falling, partial curve]. In the case of `COC(=O)c1ccc(NC(=O)CN(Cc2ccccc2)S(=O)(=O)c2ccc(C)cc2)cc1`, the AC50 is reported as 7.94 µM [falling, full curve]. In the case of `CCCC(=O)N1CCc2cc(OC)c(OC)cc2C1COc1ccc2c(C)cc(=O)oc2c1` (stereo not given), the AC50 is reported as 0.126 µM [falling, full curve]. For `COc1ccc(NC(=O)Cn2c(=O)cc(C)c3c(C)nn(C)c32)cc1`, the AC50 was 39.8 µM [falling, single point]. In the case of `Cc1ccc(Cl)cc1N1CCN(C(=O)c2cnn(C(C)(C)C)c2C2CCN(C(=O)OC(C)(C)C)CC2)CC1`, the AC50 is reported as 25.1 µM [falling, partial curve]. In the case of `CCOc1ccc(NC(=O)Cn2cc(C(=O)c3ccc(CC)cc3)c(=O)c3cc4c(cc32)OCO4)cc1`, the AC50 is reported as 25.1 µM [falling, single point]. With `CC(=O)N1CCc2c(sc3c2c(=O)n(-c2cc(Cl)ccc2C)c(=O)n3Cc2ccccc2F)C1` the AC50 was 39.8 µM [falling, single point]. For `COC(=O)c1cc(Cl)ccc1NC(=O)CSc1ncc(S(=O)(=O)c2ccc(Br)cc2)c(=O)[nH]1`, the AC50 was 5.01 µM [falling, full curve]. For `COc1ccc(C(=O)COC(=O)CCCC(=O)Nc2cc(C(F)(F)F)ccc2Cl)cc1`, the AC50 was 31.6 µM [falling, single point]. For `O=C(Nc1nc2n(n1)C(c1ccc(Cl)cc1)CC(c1ccc(Cl)cc1)N2)c1ccco1` (stereo not given), the AC50 was 20 µM [falling, partial curve]. For `CCCCOC(=O)c1ccc(NC(=O)c2cc(-c3cccs3)on2)cc1`, the AC50 was 0.126 µM [falling, full curve]. With `COc1ccc(-n2c(Cc3cccn3C)nnc2SCC(=O)N2CCCc3ccccc32)cc1` the AC50 was 10 µM [falling, partial curve]. In the case of `CCOc1ccc(OCC)c(NC(=O)CN2CCC(NC(=O)c3cccc(F)c3)CC2)c1`, the AC50 is reported as 31.6 µM [falling, partial curve]. With `Cc1ccc(Nc2c(-c3ccc(C)s3)nc3ncccn23)cc1` the AC50 was 3.98 µM [falling, partial curve]. In the case of `O=C(NCCc1ccc(Cl)cc1)c1cc(-c2ccc(Cl)cc2)n[nH]1`, the AC50 is reported as 10 µM [falling, partial curve]. For `COc1ccccc1CNC(=O)c1ccc(-c2nc(CS(=O)(=O)c3ccc(C)cc3)c(C)o2)cc1`, the AC50 was 15.8 µM [falling, partial curve].
